From the supplement of paper PMC12889115
This is one part of the list. These are raw signals, not scaled to a control.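 In the initial screen, polymyxin B was used at a concentration that permeabilizes Salmonella's outer membrane but not its inner membrane. Maximum growth was set by DMSO wells with or without polymyxin B. Since plates varied, data were ranked per plate, and compounds giving the lowest OD600 advanced as hits.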

Tested on: Salmonella enterica serovar Typhimurium SL1344
Experiment: bacterial growth OD600 after 18 h with compound and polymyxin B; higher = more bacterial growth (less inhibition)
Conditions: 50 µM, Mueller-Hinton broth

| SMILES | bacterial growth OD600 (polymyxin B 0.75 µg/mL) | bacterial growth OD600 (polymyxin B 1 µg/mL) |
| --- | --- | --- |
| COc1ccccc1C1(CC(=O)N(C)CC2Cc3ccccc3O2)CC(=O)N(C2CCCC2)C1=O (stereo not given) | 0.005 | – |
| COc1cccc(CC(C2CCN(C(=O)CC3CCCC3)CC2)N(C)C(=O)c2ccn(C)n2)c1 (stereo not given) | 0.771 | – |
| O=C(NCC1CCCN(C(=O)CCn2cncn2)C1)c1ccc(-c2ccccc2)cc1 (stereo not given) | – | 0.922 |
| COc1ccc(C(=O)N2CCCC(CCC(=O)Nc3ccc(OC)c(Cl)c3)C2)o1 (stereo not given) | – | 1.1 |
| COCc1ccc(C(=O)Nc2ccc(-c3nc(CNC(=O)c4cccnc4C)c(C)o3)cc2)o1 | 0.816 | – |
| CCN(CC1CCCN(CCc2cccc(OC)c2)C1)C(=O)CCC(=O)OC (stereo not given) | – | 0.937 |
| COc1ccc(NC(=O)CCC2CCN(C(=O)CC3=CCCCC3)CC2)c(OC)c1 | – | 0.862 |
| CN(Cc1nc(-c2ccccn2)no1)C1CCCCC1 | – | 0.962 |
| Cn1cc(CN2CCc3c([nH]c4ccccc34)C2c2cc(F)ccc2F)cn1 (stereo not given) | – | 0.427 |
| CCOC(=O)N1CCC(N2CCN(Cc3ccccc3F)C(CCO)C2)CC1 (stereo not given) | – | 0.96 |
| NC(=O)CCN1CCN(Cc2cn(-c3ccccc3)nc2-c2ccc3c(c2)OCO3)CC1 | – | 0.923 |
| CCn1cc(CN2CCCC(C(=O)Nc3ccc(-c4ccco4)cc3)C2)c(C)n1 (stereo not given) | 0.642 | – |
| O=C(c1ccc(N2CCC(NCc3csc(Cc4ccccc4)n3)CC2)cc1)N1CCOCC1 | 0.83 | – |
| COc1cccc(CNC(=O)c2cc(COc3c(C)cccc3C)on2)c1OC | 0.578 | – |
| COc1ccccc1C(=O)C1CCCN(C(=O)c2ccc(F)c(F)c2)C1 (stereo not given) | – | 0.861 |
| COCCCN1C(=O)CC(CC(=O)N2CCN(c3ccccc3)C(=O)C2)(c2ccccc2OC)C1=O (stereo not given) | 0.875 | – |
| Cc1ccccc1-n1ncc2c1CC(C)(C)CC2NC(=O)C(C)(C)C (stereo not given) | 0.538 | – |
| Cc1cc(F)ccc1NC(=O)CCC1CCCN(C(=O)c2ccc3c(c2)no[n+]3[O-])C1 (stereo not given) | – | 0.856 |
| C=CCC(=O)NC1CC(C)(C)Cc2c1cnn2-c1ccc(F)cc1 (stereo not given) | 0.459 | – |
| O=C(C1CCN(Cc2nc(-c3ccccc3)no2)CC1)N1CCCCC1 | 0.831 | – |
| CS(=O)(=O)c1ncc(CN2CCCC(c3ccccc3)C2)n1Cc1ccccc1F (stereo not given) | – | 0.5 |
| Cc1ccccc1N1C(=O)CN(C(=O)c2cc(C3CC3)nc3ccccc23)CC1C (stereo not given) | 0.856 | – |
| COc1ccc(CN2CCC(CO)(Cc3ccccc3)CC2)c(Cl)c1OC | – | 0.761 |
| CCOC(=O)N1CCN(C(=O)c2cc(NC(=O)COC)cc3ncn(Cc4ccc(F)cc4)c23)CC1 | 0.786 | – |
| COc1ccc(CNC(=O)CCC2CCCN(C(=O)c3cc(C(C)C)no3)C2)c(OC)c1 (stereo not given) | – | 0.839 |
| C=CCn1cc(CN2CCOC(CCN(C)C)C2)c(C)n1 (stereo not given) | 0.846 | – |
| Cc1ccc(CN2CCNC(=O)C2CC(=O)N2CCN(c3ccccc3)CC2)cc1 (stereo not given) | – | 1.01 |
| COCc1ccc(C(=O)Nc2ccc(-c3nc(CNC(=O)c4c(F)cccc4F)c(C)o3)cc2)o1 | 0.713 | – |
| COc1ccccc1C1CN(CC(=O)NCC2(c3ccccc3)CCOCC2)Cc2ccccc2O1 (stereo not given) | 0.006 | – |
| O=C(NCC1CC2C=CC1C21CC1)c1cc(Cc2ccc(F)cc2)no1 (stereo not given) | 0.002 | – |

Compounds above with a Cl atom:

| SMILES | bacterial growth OD600 (polymyxin B 0.75 µg/mL) | bacterial growth OD600 (polymyxin B 1 µg/mL) |
| --- | --- | --- |
| COc1ccc(C(=O)N2CCCC(CCC(=O)Nc3ccc(OC)c(Cl)c3)C2)o1 (stereo not given) | – | 1.1 |
| COc1ccc(CN2CCC(CO)(Cc3ccccc3)CC2)c(Cl)c1OC | – | 0.761 |
